Assay results taken from the supplement of paper PMC11150407.
Structures can show the parent of a compound that is named as a salt. In all, about 2,100 compounds went through this assay and about 180 (8.6%) showed an effect of 50% or more. Some of the results follow.

system: MOLM1 and UCSD/AML1 (averaged); test: cell viability relative to DMSO control (POC); higher = less growth inhibition; settings: 1 µM; 72 h
Method: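 Primary viability screen in the 3q26 EVI1-high AML cell lines MOLM1 and UCSD/AML1 (1.5e3 cells/well, 384-well), compounds at 1 uM for 72 h. ATP CellTiter-Glo read-out given as percent of viable cells over DMSO control (POC), averaged over duplicates. DMSO was the negative control and 5 uM etoposide the positive control. This mapping covers the MicroSource Spectrum and Selleck anticancer libraries (drug names).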

| Structure (SMILES) | cell viability [%] |
| --- | --- |
| CC(C)(C#N)c1cc(Cn2cncn2)cc(C(C)(C)C#N)c1 [Anastrozole] | 104 |
| C[C@H]1[C@H](C)CC[C@]2(CO)CC[C@]3(C)C(=CC[C@@H]4[C@@]5(C)CC[C@H](O)C(C)(C)[C@@H]5CC[C@]43C)[C@H]12 | 110 |
| Oc1c(I)cc(Cl)c2cccnc12 | 88.5 |
| O=C(O)c1cn(C2CC2)c2cc(N3CCNCC3)c(F)cc2c1=O | 95.6 |
| COc1cc(OC2CCN(C)CC2)ccc1Nc1ncc2c(n1)n(C1CCCC1)c(=O)n2C | 70.8 |
| Cc1cc(C(C)(C)C)c(O)c(C(C)(C)C)c1 | 96.3 |
| COc1cc(C(=O)NCc2ccc(OCCN(C)C)cc2)cc(OC)c1OC | 97.1 |
| COc1ccc2c(c1)OC/C(=C/c1ccc(OC)c(OC)c1)C2=O | 108 |
| C[C@@H]1CC[C@H]2[C@](C)(CO)[C@@H](O)CC[C@]2(C)[C@@]12CC[C@@](CO)(CCO)O2 | 89.3 |
| C1CCC(C(CC2CCCCN2)C2CCCCC2)CC1 (centres undefined) | 92.1 |
| CC(C)c1c(O)c(-c2cc3c(c(C(C)C)c2O)CCC2C(C)(C)CCC[C@]32C)cc2c1CCC1C(C)(C)CCC[C@]21C (some centres undefined) | 87.3 |
| CC(=O)[C@@]1(O)CC[C@H]2[C@@H]3C[C@H](C)C4=CC(=O)C=C[C@]4(C)[C@@]3(F)[C@@H](O)C[C@@]21C | 75.3 |
| CCc1nc(N)nc(N)c1-c1ccc(Cl)cc1 | 101 |
| C[C@H]1c2cccc(O)c2C(=O)C2=C(O)[C@]3(O)C(=O)C(C(N)=O)=C(O)[C@@H](N(C)C)[C@@H]3[C@@H](O)[C@@H]21 | 98.7 |
| C=CC(C1=CC(=O)C(OC)=CC1=O)c1ccccc1 (centres undefined) | 79.2 |
| Clc1ccc(C(Cn2ccnc2)OCc2ccsc2Cl)c(Cl)c1 (centres undefined) | 79.4 |
| C[C@](N)(Cc1ccc(O)c(O)c1)C(=O)O | 98 |
| Cc1ccc(NC(=O)c2ccc(CN3CCN(C)CC3)cc2)cc1Nc1nccc(-c2cccnc2)n1 [Imatinib Mesylate] | 37.8 |
| COc1c(CC(=O)c2cc3c(cc2O)OC(C)(C)C(O)C3)ccc2c1C=CC(C)(C)O2 (centres undefined) | 98 |
| CN[C@@H]1[C@H](O)[C@H](NC)[C@H]2O[C@@]3(O)C(=O)C[C@@H](C)O[C@H]3O[C@@H]2[C@H]1O | 99.7 |
| NS(=O)(=O)c1cc2c(cc1Cl)NC(C(Cl)Cl)NS2(=O)=O (centres undefined) | 106 |
| CN[C@H](CC(=O)O)C(=O)O | 112 |

A few values from above:
Cc1cc(C(C)(C)C)c(O)c(C(C)(C)C)c1 – cell viability [%]: 96.3
CN[C@H](CC(=O)O)C(=O)O – cell viability [%]: 112

Later entries

| Structure (SMILES) | cell viability [%] |
| --- | --- |
| Cc1onc(-c2ccccc2Cl)c1C(=O)N[C@@H]1C(=O)N2[C@@H]1SC(C)(C)[C@@H]2C(=O)O | 95.3 |
| CC1(C)O[C@H]2CC(=O)OC[C@]23[C@H]2CC[C@@]4(C)[C@H](c5ccoc5)OC(=O)[C@H]5O[C@]54[C@]2(C)C(=O)C[C@@H]13 | 92.5 |
| CC12CCC(CC1=O)C2(C)C (centres undefined) | 114 |
| C[C@@H]1NC(=O)[C@@H](N)CNC(=O)[C@H](C2CCNC(=N)N2)NC(=O)/C(=C/NC(N)=O)NC(=O)[C@H](CNC(=O)CC(N)CCCN)NC1=O.N=C1NCC[C@H]([C@@H]2NC(=O)/C(=C/NC(N)=O)NC(=O)[C@H](CNC(=O)C[C@@H](N)CCCN)NC(=O)[C@H](CO)NC(=O)[C@@H](N)CNC2=O)N1 | 114 |
| C=C[C@@](C)(O)CCC1C(=C)CCC2[C@@](C)(CO)CCC[C@]12C (some centres undefined) | 112 |
| CN[C@@H]1[C@@H](O[C@H]2O[C@H](CO)[C@@H](N)[C@H](O)[C@H]2O)OC2C[C@@H](N)[C@@H](O[C@H]3[C@H](O)[C@@H](O)[C@H](N)C[C@@H]3N)OC2[C@@H]1O (some centres undefined) | 78.1 |
| CC(=O)Oc1cc(OC(C)=O)c2c(c1)O[C@H](c1ccc(OC(C)=O)c(OC(C)=O)c1)[C@@H](OC(C)=O)C2 | 96.7 |
| CCCCCCCCCCCCCCCCCCCCCCO | 101 |
| CC(C)C[C@@H](C(=O)N[C@H](C(=O)OC1CCCC1)c1ccccc1)[C@H](O)C(=O)NO [Tosedostat (CHR2797)] | 77.5 |
| NCCCC(=O)O [gamma-AMINOBUTYRIC ACID] | 109 |
| CN(C)C/C=C(/c1ccc(Br)cc1)c1cccnc1 | 95.9 |
| CC(C)(CO)C(O)C(=O)NCCCO (centres undefined) | 90 |
| CCOc1ccc2ccccc2c1C(=O)N[C@@H]1C(=O)N2[C@@H]1SC(C)(C)[C@@H]2C(=O)O | 71.7 |
| CCN(CC)CCNC(=O)c1cc(Cl)c(N)cc1OC | 96.3 |
| Cn1cnc2c1c(=O)[nH]c(=O)n2C | 97.7 |
| O=C(O)CCNC(=O)c1ccccc1 | 116 |
| CO[C@H]1/C=C\C=C(/C)C(=O)NC2=CC(=O)C(NCCN(C)C)=C(C[C@@H](C)C[C@H](OC)[C@H](O)[C@@H](C)/C=C(\C)[C@@H]1OC(N)=O)C2=O [17-DMAG HCl (Alvespimycin)] | 2.31 |
| CCC[C@@H]1C[C@@H](C(=O)N[C@@H]([C@H]2O[C@H](SC)[C@H](O)[C@@H](O)[C@H]2O)[C@H](C)Cl)N(C)C1 | 88.6 |
| C[n+]1c2cc(N)ccc2cc2ccc(N)cc21 | 81.6 |
| CC(C)[N+](C)(CCOC(=O)C1c2ccccc2Oc2ccccc21)C(C)C | 96.2 |
| CN1CCC[C@@H]1Cc1c[nH]c2ccc(CCS(=O)(=O)c3ccccc3)cc12 | 85.7 |
| CN(C)CCC=C1c2ccccc2COc2ccccc21 | 107 |
